Reference: the supplement of paper PMC9233669
Variants at the floor of the assay are shown more often than the library holds them.

Key:
biotinyl-Trp-oxazolone = experiment: self-aminoacylation, catalytic enhancement (BWO) (fold over background); higher = more active; k-Seq, kA / k0A0; sequences stand for … in GGGAAUGGAUCCACAUCUACGAAUUC…UUCACUGCAGACUUGACGAAGCUG
Procedure, shortened: (§1)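 Mutagenized RNA pools (0.43 μM; 21-nt variable region) were treated with 2–1250 μM of each biotinyl-aminoacyl-oxazolone. Conditions were 50 μL HEPES/NaCl/KCl/MgCl2/CaCl2 buffer, 5% acetonitrile, pH 6.9–7.0, room temperature, 90 minutes. Catalytic enhancement, the median kA relative to the uncatalyzed rate, was derived from streptavidin capture, qPCR and Illumina sequencing.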

biotinyl-Leu-oxazolone = experiment: self-aminoacylation, catalytic enhancement (BLO) (fold over background); higher = more active; k-Seq, kA / k0A0; sequences stand for … in GGGAAUGGAUCCACAUCUACGAAUUC…UUCACUGCAGACUUGACGAAGCUG
Procedure, shortened: as §1

biotinyl-Val-oxazolone = experiment: self-aminoacylation, catalytic enhancement (BVO) (fold over background); higher = more active; k-Seq, kA / k0A0; sequences stand for … in GGGAAUGGAUCCACAUCUACGAAUUC…UUCACUGCAGACUUGACGAAGCUG
Procedure, shortened: as §1

biotinyl-Ile-oxazolone = experiment: self-aminoacylation, catalytic enhancement (BIO) (fold over background); higher = more active; k-Seq, kA / k0A0; sequences stand for … in GGGAAUGGAUCCACAUCUACGAAUUC…UUCACUGCAGACUUGACGAAGCUG
Procedure, shortened: as §1

biotinyl-Met-oxazolone = experiment: self-aminoacylation, catalytic enhancement (BMO) (fold over background); higher = more active; k-Seq, kA / k0A0; sequences stand for … in GGGAAUGGAUCCACAUCUACGAAUUC…UUCACUGCAGACUUGACGAAGCUG
Procedure, shortened: as §1

biotinyl-Phe-oxazolone = experiment: self-aminoacylation, catalytic enhancement (BFO) (fold over background); higher = more active; k-Seq, kA / k0A0; sequences stand for … in GGGAAUGGAUCCACAUCUACGAAUUC…UUCACUGCAGACUUGACGAAGCUG
Procedure, shortened: as §1

Sequence | self-aminoacylation (biotinyl-Trp-oxazolone) | self-aminoacylation (biotinyl-Leu-oxazolone) | self-aminoacylation (biotinyl-Val-oxazolone) | self-aminoacylation (biotinyl-Ile-oxazolone) | self-aminoacylation (biotinyl-Met-oxazolone) | self-aminoacylation (biotinyl-Phe-oxazolone)
AAUCACCUAGGUCAACGGGUG [Fam2.2 aminoacylation ribozyme variant] | 3.32 | 3.39 | 2.77 | 2.29 | 2.91 | 10.3
AAUUUUGCGAAUAGUCGCAAG [Fam3.1 aminoacylation ribozyme variant] | 2 | 1.6 | 1.54 | 1.71 | 1.82 | 1.48
ACACACUUCAAGCAAUCCGUC [Fam1B.1 aminoacylation ribozyme variant] | 1.77 | 1.01 | 1.58 | 1.38 | 1.2 | 1.33
ACACACUUCUAGCAAUCGGUC [Fam1B.1 aminoacylation ribozyme variant] | 0.781 | 0.879 | 1.01 | 1.06 | 0.784 | 1.23
ACGUUUGCUAAUAGUCGGAAG [Fam3.1 aminoacylation ribozyme variant] | 0.882 | 0.62 | 0.983 | 1.01 | 0.611 | 3.98
ACUACCCUGGUCAUCCAGUGA [Fam2.1 aminoacylation ribozyme variant] | 5.86 | 5.01 | 3.27 | 3.37 | 5.05 | 21.2
ACUACCCUGUUCAUCGAGUGA [Fam2.1 aminoacylation ribozyme variant] | 5.04 | 3.27 | 2.33 | 2.28 | 3.17 | 6.68
ACUCACCUAGGUAAUCGGGUG [Fam2.2 aminoacylation ribozyme variant] | 4.3 | 3.66 | 2.85 | 3.22 | 4.2 | 23.9
ACUCACCUAGGUCAUCGGGUA [Fam2.2 aminoacylation ribozyme variant] | 14.9 | 27 | 10.1 | 11.4 | 19.9 | 157
ACUCACCUAGGUCAUCGGGUC [Fam2.2 aminoacylation ribozyme variant] | 1.6 | 1.62 | 1.84 | 1.51 | 2.24 | 7.01
AGGUUUGCUAAUACUCGCAAG [Fam3.1 aminoacylation ribozyme variant] | 0.633 | 0.706 | 0.766 | 0.884 | 0.538 | 0.881
AGGUUUGCUAAUGGUCGCAAG [Fam3.1 aminoacylation ribozyme variant] | 0.816 | 0.773 | 0.685 | 0.764 | 0.846 | 1.03
AGGUUUGCUAAUUGUCGCAAG [Fam3.1 aminoacylation ribozyme variant] | 1.33 | 1.04 | 0.975 | 1.15 | 0.979 | 1.3
AGUACCCUGGUCACCGAGUGA [Fam2.1 aminoacylation ribozyme variant] | 11.1 | 9.52 | 4.11 | 4.52 | 8.83 | 54.5
AGUCACCUAGGUCAUCGGGUA [Fam2.2 aminoacylation ribozyme variant] | 9.54 | 12.7 | 6.5 | 6.85 | 11.6 | 60
AGUCACCUAGGUCAUCGUGUG [Fam2.2 aminoacylation ribozyme variant] | 1.12 | 1.59 | 1.31 | 1.45 | 1.5 | 7.83
AUACACCUAGGUCAUCGUGUG [Fam2.2 aminoacylation ribozyme variant] | 0.685 | 1.11 | 0.98 | 0.982 | 0.968 | 0.628
AUACUUCAAACAAUCCGUCUG [Fam1A.1 aminoacylation ribozyme variant] | 1.17 | 1.09 | 0.918 | 1.04 | 1.05 | 1.42
AUACUUCAAACAAUCGCUCUG [Fam1A.1 aminoacylation ribozyme variant] | 0.949 | 0.689 | 0.809 | 0.906 | 0.681 | 1.42
AUACUUCAAACAAUCGGCCUG [Fam1A.1 aminoacylation ribozyme variant] | 15.5 | 2.02 | 1.44 | 1.68 | 1.69 | 20.7
AUACUUCAAAGAAUCGGUCUG [Fam1A.1 aminoacylation ribozyme variant] | 1.38 | 0.76 | 0.723 | 0.748 | 0.702 | 1.6
AUACUUCAGACAAUCGGUCUG [Fam1A.1 aminoacylation ribozyme variant] | 0.724 | 1.02 | 0.811 | 0.795 | 0.793 | 1.01
